The values below come from the supplement of paper PMC6411743.

By UniProt entry, the sequences of proteins in these tests, tags left out. Where a name states a change or a piece, a line headed by the entry shows the natural chain unless it says otherwise.
UniProt P22570: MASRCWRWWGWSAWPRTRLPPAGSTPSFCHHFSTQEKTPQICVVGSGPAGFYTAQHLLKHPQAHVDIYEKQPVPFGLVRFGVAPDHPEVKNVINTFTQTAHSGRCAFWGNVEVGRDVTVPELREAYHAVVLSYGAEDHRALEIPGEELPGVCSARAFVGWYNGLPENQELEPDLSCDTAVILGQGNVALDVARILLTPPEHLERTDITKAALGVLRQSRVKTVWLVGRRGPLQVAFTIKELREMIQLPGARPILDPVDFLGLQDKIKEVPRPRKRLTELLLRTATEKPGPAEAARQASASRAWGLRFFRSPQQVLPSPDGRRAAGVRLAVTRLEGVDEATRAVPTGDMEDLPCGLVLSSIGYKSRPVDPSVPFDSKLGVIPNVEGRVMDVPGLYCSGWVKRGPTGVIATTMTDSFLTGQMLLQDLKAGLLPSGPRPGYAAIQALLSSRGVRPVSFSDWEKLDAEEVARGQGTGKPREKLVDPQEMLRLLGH
UniProt O75521: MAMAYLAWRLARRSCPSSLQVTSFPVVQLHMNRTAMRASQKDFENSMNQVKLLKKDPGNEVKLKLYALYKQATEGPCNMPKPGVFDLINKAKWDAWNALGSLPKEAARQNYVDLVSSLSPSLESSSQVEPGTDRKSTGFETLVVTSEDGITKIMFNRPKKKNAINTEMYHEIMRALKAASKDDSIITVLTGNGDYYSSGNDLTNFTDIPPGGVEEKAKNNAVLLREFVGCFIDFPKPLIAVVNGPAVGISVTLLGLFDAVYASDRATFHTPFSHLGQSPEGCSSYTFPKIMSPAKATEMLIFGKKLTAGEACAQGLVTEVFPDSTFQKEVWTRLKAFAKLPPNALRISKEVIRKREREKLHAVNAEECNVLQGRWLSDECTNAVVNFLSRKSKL
UniProt O75608: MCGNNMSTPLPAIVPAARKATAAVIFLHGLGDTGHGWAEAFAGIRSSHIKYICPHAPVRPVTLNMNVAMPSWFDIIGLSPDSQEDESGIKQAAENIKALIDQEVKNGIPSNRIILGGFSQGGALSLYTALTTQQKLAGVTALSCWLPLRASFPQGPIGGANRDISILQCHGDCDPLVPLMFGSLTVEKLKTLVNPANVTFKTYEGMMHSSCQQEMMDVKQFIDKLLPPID
UniProt P04062: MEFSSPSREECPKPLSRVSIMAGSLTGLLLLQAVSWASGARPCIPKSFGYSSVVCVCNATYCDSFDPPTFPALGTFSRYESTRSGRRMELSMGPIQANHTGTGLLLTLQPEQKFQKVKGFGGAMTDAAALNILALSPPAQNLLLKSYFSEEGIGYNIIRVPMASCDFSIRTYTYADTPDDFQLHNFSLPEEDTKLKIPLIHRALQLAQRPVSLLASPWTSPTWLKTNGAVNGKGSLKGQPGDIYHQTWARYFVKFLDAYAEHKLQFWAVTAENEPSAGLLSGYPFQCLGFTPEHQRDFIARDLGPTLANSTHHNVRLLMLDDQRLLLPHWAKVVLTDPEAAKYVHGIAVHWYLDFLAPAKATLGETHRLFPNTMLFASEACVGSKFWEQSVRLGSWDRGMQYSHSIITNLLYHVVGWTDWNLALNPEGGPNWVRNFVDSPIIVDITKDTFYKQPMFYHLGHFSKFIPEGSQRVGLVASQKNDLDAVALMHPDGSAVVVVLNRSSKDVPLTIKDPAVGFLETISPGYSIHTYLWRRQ
UniProt P49459, whole entry: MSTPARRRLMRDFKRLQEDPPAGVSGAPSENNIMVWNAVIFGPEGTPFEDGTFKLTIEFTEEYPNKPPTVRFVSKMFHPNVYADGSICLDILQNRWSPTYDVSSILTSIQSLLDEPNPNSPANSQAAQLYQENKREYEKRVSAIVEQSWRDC
UniProt Q9UBW5: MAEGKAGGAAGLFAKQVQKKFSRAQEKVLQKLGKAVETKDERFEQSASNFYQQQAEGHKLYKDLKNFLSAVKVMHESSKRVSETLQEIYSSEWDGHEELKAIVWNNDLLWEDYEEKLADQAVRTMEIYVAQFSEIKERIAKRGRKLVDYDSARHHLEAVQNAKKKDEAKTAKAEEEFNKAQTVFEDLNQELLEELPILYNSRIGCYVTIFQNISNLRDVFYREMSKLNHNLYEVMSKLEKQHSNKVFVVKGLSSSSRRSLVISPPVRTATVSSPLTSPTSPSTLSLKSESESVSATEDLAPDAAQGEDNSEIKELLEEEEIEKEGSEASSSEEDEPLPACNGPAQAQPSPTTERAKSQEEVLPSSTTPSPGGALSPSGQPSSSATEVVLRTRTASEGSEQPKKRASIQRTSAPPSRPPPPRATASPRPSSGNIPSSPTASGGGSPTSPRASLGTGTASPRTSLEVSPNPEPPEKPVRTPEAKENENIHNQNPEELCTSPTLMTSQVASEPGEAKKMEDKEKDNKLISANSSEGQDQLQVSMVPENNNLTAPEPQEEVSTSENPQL
UniProt P15289: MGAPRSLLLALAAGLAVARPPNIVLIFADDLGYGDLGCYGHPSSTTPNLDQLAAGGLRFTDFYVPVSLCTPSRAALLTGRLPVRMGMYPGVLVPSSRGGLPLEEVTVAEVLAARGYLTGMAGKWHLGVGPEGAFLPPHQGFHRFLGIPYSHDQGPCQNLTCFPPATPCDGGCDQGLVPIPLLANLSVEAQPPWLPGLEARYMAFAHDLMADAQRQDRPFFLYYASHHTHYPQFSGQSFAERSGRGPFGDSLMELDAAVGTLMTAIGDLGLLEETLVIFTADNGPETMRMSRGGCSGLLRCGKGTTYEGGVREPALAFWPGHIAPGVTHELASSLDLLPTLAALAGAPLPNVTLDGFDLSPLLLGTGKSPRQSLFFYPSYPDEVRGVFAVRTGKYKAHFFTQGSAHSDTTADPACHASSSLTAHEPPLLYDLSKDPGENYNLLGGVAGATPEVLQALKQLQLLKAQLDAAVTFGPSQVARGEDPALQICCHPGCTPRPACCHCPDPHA
UniProt P49917: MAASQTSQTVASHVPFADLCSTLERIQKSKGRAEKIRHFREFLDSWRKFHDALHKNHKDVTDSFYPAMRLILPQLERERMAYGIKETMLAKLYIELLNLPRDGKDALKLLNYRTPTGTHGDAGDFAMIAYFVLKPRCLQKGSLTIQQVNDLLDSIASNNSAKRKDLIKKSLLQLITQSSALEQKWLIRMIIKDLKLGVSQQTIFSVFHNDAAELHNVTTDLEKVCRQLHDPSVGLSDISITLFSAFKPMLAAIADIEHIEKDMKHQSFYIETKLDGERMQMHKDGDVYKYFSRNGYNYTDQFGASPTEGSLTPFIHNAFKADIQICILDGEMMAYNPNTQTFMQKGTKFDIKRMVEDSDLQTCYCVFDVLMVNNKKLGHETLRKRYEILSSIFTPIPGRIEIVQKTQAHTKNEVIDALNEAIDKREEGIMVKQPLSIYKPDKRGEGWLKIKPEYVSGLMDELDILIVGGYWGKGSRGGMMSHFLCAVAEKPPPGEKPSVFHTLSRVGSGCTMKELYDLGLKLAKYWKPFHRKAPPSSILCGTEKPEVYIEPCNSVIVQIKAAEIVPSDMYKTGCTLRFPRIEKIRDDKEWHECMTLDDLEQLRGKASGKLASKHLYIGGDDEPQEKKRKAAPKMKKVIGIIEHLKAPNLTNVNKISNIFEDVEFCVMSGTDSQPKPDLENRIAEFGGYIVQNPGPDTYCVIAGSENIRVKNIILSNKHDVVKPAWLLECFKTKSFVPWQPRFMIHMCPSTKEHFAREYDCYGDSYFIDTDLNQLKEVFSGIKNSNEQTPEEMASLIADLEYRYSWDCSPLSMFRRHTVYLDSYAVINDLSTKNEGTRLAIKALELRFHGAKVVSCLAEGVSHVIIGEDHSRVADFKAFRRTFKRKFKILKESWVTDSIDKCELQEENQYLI
UniProt P31641: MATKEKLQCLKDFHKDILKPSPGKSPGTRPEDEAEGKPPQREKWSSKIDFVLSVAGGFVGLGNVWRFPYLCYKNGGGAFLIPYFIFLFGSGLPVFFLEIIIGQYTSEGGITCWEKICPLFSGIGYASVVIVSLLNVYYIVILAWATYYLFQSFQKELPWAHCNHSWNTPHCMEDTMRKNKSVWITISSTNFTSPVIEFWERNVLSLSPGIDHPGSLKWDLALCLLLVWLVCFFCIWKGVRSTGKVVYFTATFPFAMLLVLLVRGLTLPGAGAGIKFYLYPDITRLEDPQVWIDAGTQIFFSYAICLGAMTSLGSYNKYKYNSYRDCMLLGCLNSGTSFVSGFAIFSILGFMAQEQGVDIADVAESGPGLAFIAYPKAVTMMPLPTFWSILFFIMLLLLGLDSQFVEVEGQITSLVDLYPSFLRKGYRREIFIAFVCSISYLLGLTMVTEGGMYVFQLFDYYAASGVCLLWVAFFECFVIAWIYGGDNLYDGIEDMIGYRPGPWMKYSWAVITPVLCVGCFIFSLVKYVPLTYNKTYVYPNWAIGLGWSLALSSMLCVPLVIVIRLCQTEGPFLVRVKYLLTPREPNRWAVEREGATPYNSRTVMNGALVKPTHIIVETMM
UniProt P57768: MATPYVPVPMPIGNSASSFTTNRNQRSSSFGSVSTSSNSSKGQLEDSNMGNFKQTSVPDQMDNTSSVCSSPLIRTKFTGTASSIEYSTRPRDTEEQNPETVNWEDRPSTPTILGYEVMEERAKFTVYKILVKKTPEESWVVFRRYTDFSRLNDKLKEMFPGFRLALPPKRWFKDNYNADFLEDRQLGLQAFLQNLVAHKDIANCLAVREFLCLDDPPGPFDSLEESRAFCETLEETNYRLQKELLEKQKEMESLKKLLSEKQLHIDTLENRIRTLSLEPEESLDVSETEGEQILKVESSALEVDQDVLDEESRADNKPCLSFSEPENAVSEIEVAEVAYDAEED
UniProt Q6UXD5: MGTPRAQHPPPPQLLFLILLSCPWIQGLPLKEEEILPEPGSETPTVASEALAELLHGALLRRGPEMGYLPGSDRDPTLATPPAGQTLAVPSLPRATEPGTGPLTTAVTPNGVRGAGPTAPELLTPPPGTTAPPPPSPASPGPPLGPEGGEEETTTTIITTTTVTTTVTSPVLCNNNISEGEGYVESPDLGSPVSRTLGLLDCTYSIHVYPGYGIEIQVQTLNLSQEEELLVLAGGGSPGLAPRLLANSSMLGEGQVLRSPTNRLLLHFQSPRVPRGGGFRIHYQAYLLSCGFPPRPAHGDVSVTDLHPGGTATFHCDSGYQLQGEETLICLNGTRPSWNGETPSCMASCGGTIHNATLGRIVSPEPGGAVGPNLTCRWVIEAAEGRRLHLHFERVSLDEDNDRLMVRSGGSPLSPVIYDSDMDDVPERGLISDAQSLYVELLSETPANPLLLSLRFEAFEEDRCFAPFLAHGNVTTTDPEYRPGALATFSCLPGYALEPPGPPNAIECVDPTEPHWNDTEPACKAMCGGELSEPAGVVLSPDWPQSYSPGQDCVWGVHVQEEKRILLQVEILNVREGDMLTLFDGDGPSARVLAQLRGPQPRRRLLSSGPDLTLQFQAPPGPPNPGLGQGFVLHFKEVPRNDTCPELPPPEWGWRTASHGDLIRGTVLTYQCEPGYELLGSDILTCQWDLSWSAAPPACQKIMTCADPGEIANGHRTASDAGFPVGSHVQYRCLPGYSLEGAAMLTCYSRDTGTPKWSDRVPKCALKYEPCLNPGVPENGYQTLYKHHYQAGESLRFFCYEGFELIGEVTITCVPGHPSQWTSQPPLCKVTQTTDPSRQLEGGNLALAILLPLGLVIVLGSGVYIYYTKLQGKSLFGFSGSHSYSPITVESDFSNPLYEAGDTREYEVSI
UniProt Q8WUA7: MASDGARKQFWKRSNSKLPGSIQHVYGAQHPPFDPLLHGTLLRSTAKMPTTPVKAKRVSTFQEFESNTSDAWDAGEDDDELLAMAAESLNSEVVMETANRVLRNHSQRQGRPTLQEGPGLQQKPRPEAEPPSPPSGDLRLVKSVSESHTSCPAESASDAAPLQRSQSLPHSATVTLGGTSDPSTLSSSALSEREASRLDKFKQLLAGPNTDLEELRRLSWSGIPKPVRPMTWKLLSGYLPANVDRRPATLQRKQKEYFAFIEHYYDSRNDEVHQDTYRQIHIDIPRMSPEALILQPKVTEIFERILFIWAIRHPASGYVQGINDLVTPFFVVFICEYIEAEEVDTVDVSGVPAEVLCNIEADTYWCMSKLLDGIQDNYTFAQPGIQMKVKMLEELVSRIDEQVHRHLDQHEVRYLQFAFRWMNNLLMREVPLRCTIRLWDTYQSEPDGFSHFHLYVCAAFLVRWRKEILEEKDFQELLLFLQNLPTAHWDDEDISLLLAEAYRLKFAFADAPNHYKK

± gives the standard deviation of the averaged measurements. The entries are a selection whose mix differs from that of the whole data set.

Compound in the test: Nc1ncnc2c1ncn2[C@@H]1O[C@H](COP(=O)(O)OP(=O)(O)NP(=O)(O)O)[C@@H](O)[C@H]1O [adenylyl imidodiphosphate]
The test is described as follows: NP40-soluble protein abundance relative to vehicle (solubility fold change) (ratio); higher = more soluble protein in presence of AMP-PNP. Particulars: concentration: 4mM. Summed up: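 Eight concentrations, 0.1 to 10 mM, were tested on Jurkat crude lysate for 10 min at room temperature and then 3 min at 37 °C, in three independent experiments. The lysate was solubilised with 0.8% NP40 and benzonase, ultracentrifuged, and the supernatant TMT-labelled for LC-MS/MS. Each value is the fold change against the detergent-processed vehicle in its own replicate, from vsn-normalised intensities.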
For “A0A087WWH3|Q9NZM4 and related entries (UniProt Q9NZM4)”, the NP40-soluble protein abundance turned out to be 1.03 ± 0.023. For “A0A0C4DFN8|P22570 and related entries (UniProt P22570)” the value was 1.02 ± 0.033; for “A0A0C4DGA2|O75521 and related entries (UniProt O75521)”, 0.995 ± 0.053; for “A0A087X1K9|O75608 and related entries (UniProt O75608)”, 0.937 ± 0.021. On to “A0A0G2JLB3|A0A0G2JNZ0|A0A0G2JNZ5|P04062 and related entries (UniProt P04062)”, for which the NP40-soluble protein abundance stood at 0.988 ± 0.062. For A0A0D9SG71|P49459 (UniProt P49459) the value was 0.988 ± 0.018; for A0A087X188|Q9UBW5 (UniProt Q9UBW5), 1.02 ± 0.053.

As for A0A0C4DFZ2|P15289 (UniProt P15289), the NP40-soluble protein abundance amounted to 1.04 ± 0.024. As to SH3PXD2B (UniProt A1X283), the NP40-soluble protein abundance worked out at 1.04 ± 0.044.

Regarding “A0A0A6YYJ5|E9PLY5 and related entries (UniProt Q9UPN3+H3BQK9+H3BPE1+E9PLY5)”, the NP40-soluble protein abundance was 1.01 ± 0.018. For A0A0C4DGV9|P49917 (UniProt P49917), the NP40-soluble protein abundance was 1.02 ± 0.06. For A0A087WY96|P31641 (UniProt P31641) the value was 0.985 ± 0.029; for “A0A0C4DGW2|P57768 and related entries (UniProt P57768)”, 1.02 ± 0.043. As for A0A087X0Q9|Q9BVL4 (UniProt Q9BVL4), the figure is 1.04 ± 0.03; as for “A0A087WYL5|Q6UXD5-3|Q6UXD5-5|Q6UXD5-6|Q6UXD5 and related entries (UniProt Q6UXD5)”, 0.994 ± 0.034. As for “A0A0A0MRY0|Q8WUA7 and related entries (UniProt Q8WUA7)”, the figure is 1 ± 0.025.
